{"source": "paper PMC11376197", "about": "(Chemical Science, 2024)", "key": {"A549 (lung cancer cells)": {"test_system": "A549 (lung cancer cells)", "assay": "Cell viability assay", "format": "cell-based, human", "conditions": "read-out: IC50 A549; 96 h of incubation"}, "[1]": {"test_system": "MDA-MB-231 (triple-negative breast cancer cells)", "assay": "Cell viability assay", "format": "cell-based, human", "conditions": "read-out: IC50 MDA-MB-231; 96 h of incubation"}}, "data": [{"smiles": "N.N.[Cl][Pt][Cl]", "note": "[Cisplatin]", "values": [{"measurement": "IC50", "setting": "A549 (lung cancer cells)", "value": "11 ± 1", "unit": "µM"}, {"measurement": "IC50", "setting": "[1]", "value": "15 ± 1", "unit": "µM"}]}]}
